Values from PubChem BioAssay AID504774 (Drosophila RNAi Screening Center, 2011)

Aim: 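Knock-downs that shift viability of MMS-exposed cells relative to untreated ones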 (primary screen)
System: Drosophila Kc167 cells
Reagent: long dsRNA against Drosophila genes, about 0.25 µg dsRNA per well
Time to read-out: about 6 days: 3 days knock-down, then 3 days with or without MMS
Challenge: methyl methanesulphonate 0.004% (w/v) for 3 days after knock-down
Measurement: 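Viability in wells given MMS, read as ATP luminescence, normalised by quantiles plate by plate and averaged across replicates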
Scale: mean viability with MMS and viability with MMS: higher = more surviving cells after MMS
The deposit covers about 23,000 reagents; below is a random part of those that have a named target and a result. 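Values are quantile-normalised luminescence on an arbitrary scale; higher means more cells surviving MMS.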 Names joined by + are all predicted targets of the reagent. Reagent sequences are not shown.

gene	DRSC id	mean viability with MMS	viability with MMS, replicate 1	viability with MMS, replicate 2
IntS2	DRSC20094	3.33e6	3.81e6	3.66e6
CG5687	DRSC08568	3.57e6	4.00e6	4.08e6
Sr-CI	DRSC00790	1.94e6	3.93e6	4.26e6
CG6277	DRSC16008	3.48e6	3.94e6	3.92e6
lncRNA:sphinx + ATPsynF	DRSC17191	3.39e6	3.77e6	3.92e6
hdly	DRSC15849	3.48e6	3.94e6	3.98e6
CG5618	DRSC11780	3.55e6	4.00e6	4.05e6
CG3566	DRSC18311	3.67e6	3.91e6	4.42e6
CG31200	DRSC15285	3.55e6	4.08e6	3.96e6
MESR3	DRSC02463	3.50e6	3.98e6	3.97e6
mthl6	DRSC10234	3.65e6	4.21e6	4.09e6
CG15115	DRSC06537	1.96e6	4.11e6	
Rpt2	DRSC16799	2.77e6	3.56e6	3.55e6
CG13614	DRSC14617	3.66e6	4.18e6	4.11e6
mre11	DRSC03570	3.84e6	4.31e6	4.42e6
mre11	DRSC22628	3.62e6	4.12e6	4.04e6
milt	DRSC00965	3.24e6	3.64e6	3.67e6
milt	DRSC00966	3.31e6	3.68e6	3.83e6
milt	DRSC02281	3.65e6	4.23e6	4.08e6
msl-2	DRSC00829	3.69e6	4.10e6	4.33e6
CG6574	DRSC16070	3.46e6	3.97e6	3.91e6
tei	DRSC07616	3.44e6	3.82e6	3.78e6
CG31517	DRSC13010	3.57e6	3.99e6	4.11e6
PTPMT1	DRSC14235	3.66e6	4.15e6	4.15e6
CG10348	DRSC02043	3.69e6	4.17e6	4.15e6
CG10348	DRSC21908	3.51e6	3.97e6	3.98e6
CG10348	DRSC23233	3.58e6	4.11e6	4.03e6
CG14684	DRSC14907	3.64e6	4.09e6	4.10e6
mRpL55	DRSC14764	3.69e6	4.32e6	4.05e6
tRNA:Leu-CAA-2-3	DRSC13633	3.71e6	4.18e6	4.18e6
CG13014	DRSC19533	3.67e6	4.13e6	4.14e6
AkhR	DRSC03329	3.46e6	3.84e6	3.92e6
lncRNA:CR32658	DRSC19402	3.65e6	4.19e6	4.04e6
ATPsynG	DRSC02928	3.59e6	3.82e6	3.84e6
CG10339	DRSC04065	3.55e6	3.99e6	4.09e6
CG5445	DRSC19943	3.25e6	3.66e6	3.57e6
CG5445	DRSC23180	3.65e6	4.08e6	4.20e6
Tbh	DRSC18723	3.59e6	3.98e6	4.17e6
CG9760	DRSC11101	3.50e6	3.98e6	3.96e6
CG5793	DRSC15874	3.46e6	3.88e6	3.98e6
CG6674	DRSC10692	3.52e6	4.04e6	3.95e6
Sclp	DRSC19851	3.43e6	3.50e6	4.18e6
CG17219	DRSC00486	3.50e6	4.11e6	3.84e6
CG11986	DRSC14461	3.73e6	4.36e6	4.11e6
Dmtn	DRSC12513	3.37e6	3.80e6	3.82e6
mbc	DRSC16995	3.52e6	3.83e6	4.14e6
CG8907	DRSC16453	3.75e6	4.09e6	4.35e6
CG17650	DRSC00510	3.37e6	3.79e6	3.77e6
CG15098	DRSC06527	3.36e6	3.78e6	3.77e6
Cdk7	DRSC18451	3.45e6	3.86e6	3.98e6
Cdk7	DRSC23327	3.62e6	4.07e6	4.14e6
Coa8	DRSC17959	3.59e6	4.15e6	4.01e6
CG3036	DRSC00260	3.54e6	4.07e6	3.97e6
CG3036	DRSC00562	3.37e6	3.60e6	3.91e6
CG13955	DRSC06443	3.50e6	4.00e6	3.95e6
CG9782	DRSC19145	3.55e6	4.02e6	4.02e6
CG9782	DRSC20209	3.62e6	4.01e6	4.19e6
IRSp53	DRSC10891	3.48e6	3.86e6	4.02e6
Cdc50	DRSC20224	3.79e6	4.19e6	4.26e6
Ythdc1	DRSC08141	3.80e6	4.38e6	4.24e6
Sk2	DRSC08556	3.37e6	3.83e6	3.87e6
CG13698	DRSC10047	3.53e6	4.06e6	3.93e6
Ald2	DRSC15799	3.19e6	3.65e6	3.66e6
CG10598	DRSC19358	3.30e6	3.63e6	3.73e6
dlt	DRSC08705	3.52e6	4.00e6	3.99e6
CG32483	DRSC07902	3.55e6	4.08e6	3.96e6
Hsp60B	DRSC00542	3.54e6	4.05e6	3.96e6
anne	DRSC17103	3.35e6	3.75e6	3.84e6
CG14903	DRSC15024	3.49e6	3.86e6	4.06e6
mIF3	DRSC06290	3.58e6	4.22e6	3.93e6
sced	DRSC04990	3.50e6	3.92e6	3.99e6
CG17349	DRSC02610	3.49e6	3.97e6	3.94e6
CG11670	DRSC14342	3.65e6	4.10e6	4.19e6
Orai	DRSC05684	3.44e6	3.89e6	3.93e6
Orai	DRSC22061	3.64e6	4.13e6	4.08e6
Bx42	DRSC17743	2.40e6	2.92e6	2.89e6
CG31988	DRSC22491	3.61e6	4.13e6	4.02e6
mRpS18C	DRSC16538	3.70e6	4.14e6	4.21e6
CG31650	DRSC03140	3.45e6	3.71e6	4.01e6
CG13671	DRSC10030	3.70e6	4.11e6	4.27e6
CR9337	DRSC03212	3.41e6	3.78e6	3.61e6
CG13177	DRSC06303	3.44e6	3.97e6	3.65e6
mthl2	DRSC10287	3.51e6	3.94e6	4.04e6
stl	DRSC04396	3.49e6	3.94e6	4.09e6
Cyp49a1	DRSC06737	3.62e6	4.00e6	4.16e6
Cyp49a1	DRSC07367	3.64e6	4.04e6	4.14e6
CG11619	DRSC09849	3.38e6	3.85e6	3.76e6

Just “viability with MMS, replicate 1”, for 5 of the entries above:
Cdc50 [DRSC20224]: 4.19e6
Ythdc1 [DRSC08141]: 4.38e6
Sk2 [DRSC08556]: 3.83e6
CG13698 [DRSC10047]: 4.06e6
Ald2 [DRSC15799]: 3.65e6
